Assay results from PubChem BioAssay AID330 (DTP/NCI, 2004).
The list shows only some results of the screen, not a fair sample: it is rich in T/C values a quarter to a half above the control, in often repeated tests (any T/C) and in doses without a T/C. Further doses and runs are listed elsewhere. T/C: endpoint of the treated group in % of that of the vehicle group. Some entries give survivors of the animals treated and no T/C: the source holds a T/C of zero for them, seemingly a mark for toxic or unscored doses. Some doses without a T/C left all or most animals alive at the check, yet need not have been tolerated: survival well below the control is almost never listed, so the zero probably covers shortened survival too. Counts of survivors are from the toxicity check (mostly the fifth day) where no day follows; animals may have died later. Schedule codes are those of the source, read here as Q, the interval in days (D) or hours (H), X, the number of doses. Some entries hold several experiments; the results are listed from low to high. For survival time, this PubChem deposit counts one and a half times the control or more as active, and values a quarter to a half above the control carry no call in these data; other NCI protocols may use other cut-offs.

Tested on: P388 leukemia ip, CD2F1 mice, survival T/C
Assay: NCI In Vivo Anticancer Drug Screen. Data for tumor model P388 Leukemia (intraperitoneal) in CD2F1 (CDF1) mice
Conditions: T/C endpoint: median survival time, higher T/C = longer survival
[1] = dose: 100.0 mg/kg/injection, schedule: Q01DX001 (ip), vehicle: Klucel (hydroxypropylcellulose) (HPC)
[2] = dose: 200.0 mg/kg/injection, schedule: Q01DX001 (ip), vehicle: Klucel (hydroxypropylcellulose) (HPC)
[3] = dose: 100.0 mg/kg/injection, schedule: Q01DX005 (ip), vehicle: saline with Tween-80
[4] = dose: 50.0 mg/kg/injection, schedule: Q01DX009 (ip), vehicle: saline
[5] = dose: 200.0 mg/kg/injection, schedule: Q01DX009 (ip), vehicle: saline with Tween-80
[6] = dose: 200.0 mg/kg/injection, schedule: Q01DX005 (ip), vehicle: saline
[7] = dose: 6.25 mg/kg/injection, schedule: Q01DX005 (ip), vehicle: saline
[8] = dose: 12.5 mg/kg/injection, schedule: Q01DX005 (ip), vehicle: saline
[9] = dose: 50.0 mg/kg/injection, schedule: Q01DX005 (ip), vehicle: saline
[10] = dose: 50.0 mg/kg/injection, schedule: Q01DX009 (ip), vehicle: saline with Tween-80
[11] = dose: 120.0 mg/kg/injection, schedule: Q01DX005 (ip), vehicle: saline with Tween-80
[12] = dose: 240.0 mg/kg/injection, schedule: Q01DX005 (ip), vehicle: saline with Tween-80
[13] = dose: 100.0 mg/kg/injection, schedule: Q01DX009 (ip), vehicle: saline
[14] = dose: 100.0 mg/kg/injection, schedule: Q01DX009 (ip), vehicle: saline with Tween-80
[15] = dose: 100.0 mg/kg/injection, schedule: Q01DX005 (ip), vehicle: Klucel (hydroxypropylcellulose) (HPC)
[16] = dose: 200.0 mg/kg/injection, schedule: Q01DX005 (ip), vehicle: Klucel (hydroxypropylcellulose) (HPC)
[17] = dose: 25.0 mg/kg/injection, schedule: Q01DX009 (ip), vehicle: saline

`O=C(O)C(CS)NCCNC(CS)C(=O)O` (stereo unspecified) was tested, and the survivor count (dose: 50.0 mg/kg/injection, schedule: Q01DX001 (ip), vehicle: Klucel (hydroxypropylcellulose) (HPC)) was 1 of 6, the survivor count [1] was 1 of 6 and the survivor count [2] was 0 of 6. The survivor count (dose: 400.0 mg/kg/injection, schedule: Q01DX001 (ip), vehicle: Klucel (hydroxypropylcellulose) (HPC)) was 0 of 6.

With `Cn1c2ccccc2c2nnc(-n3nc(-c4ccc(Br)cc4)cc3N)nc21` the survivor count (dose: 50.0 mg/kg/injection, schedule: Q01DX005 (ip), vehicle: saline with Tween-80) was 6 of 6 and the survivor count [3] was 6 of 6.

`COc1cc(NCCCCC(C)N)c2nccc(C)c2c1` (stereo unspecified) was tested, and the survivor count [4] was 6 of 6.

In the case of `NC1=NS(=O)(=O)Nc2nc[nH]c21`, the survivor count [5] is reported as 6 of 6.

`CC(C)CCNc1ncnc2c1cnn2C` was tested, and the survivor count (dose: 100.0 mg/kg/injection, schedule: Q04DX003 (ip), vehicle: saline) was 4 of 6, the survivor count (dose: 200.0 mg/kg/injection, schedule: Q04DX003 (ip), vehicle: saline with Tween-80) was 0 of 6 and the survivor count (dose: 400.0 mg/kg/injection, schedule: Q04DX003 (ip), vehicle: saline with Tween-80) was 0 of 6.

For `CCN(CC)CCCC(C)N=C(Nc1ccccc1)c1ccc(Cl)cc1` (stereo unspecified), the survivor count [6] was 1 of 5.

`O=C(O)c1cc(C(=O)O)c(C(=O)O)cc1C(=O)O.[NH2-].[NH2-].[NH2-].[NH2-].[Pt+2].[Pt+2]` was tested, and the T/C (dose: 3.12 mg/kg/injection, schedule: Q01DX005 (ip), vehicle: saline) was 127 % of control, the T/C (dose: 3.12 mg/kg/injection, schedule: Q01DX005 (ip), vehicle: suspension in saline) was 125 % of control and the T/C [7] was 130 % of control. For the same molecule, the T/C (dose: 6.25 mg/kg/injection, schedule: Q01DX005 (ip), vehicle: water) was 125 % of control, the T/C [8] was 130 and 135 % of control and the T/C (dose: 15.0 mg/kg/injection, schedule: Q01DX005 (ip), vehicle: suspension in saline) was 127 % of control. For the same molecule, the T/C (dose: 25.0 mg/kg/injection, schedule: Q01DX005 (ip), vehicle: saline) was 147 % of control, the survivor count [9] was 3 of 6 and the survivor count (dose: 69.44 mg/kg/injection, schedule: Q01DX005 (ip), vehicle: suspension in saline) was 1 of 6.

With `O=C1C(=O)c2ccccc2C(O)=C1Sc1ccc2ccccc2c1` the survivor count (dose: 25.0 mg/kg/injection, schedule: Q01DX009 (ip), vehicle: saline with Tween-80) was 6 of 6 and the survivor count [10] was 6 of 6.

For `N#CCc1c(F)c(F)c(F)c(F)c1F`, the survivor count [11] was 1 of 6 and 3 of 6 and the survivor count [12] was 0 of 6.

`CC[n+]1ccc(C(=O)NN)cc1` was tested, and the survivor count (dose: 100.0 mg/kg/injection, schedule: Q04DX002 (ip), vehicle: saline) was 2 of 6, the survivor count (dose: 200.0 mg/kg/injection, schedule: Q04DX002 (ip), vehicle: saline) was 3 of 6 and the survivor count (dose: 400.0 mg/kg/injection, schedule: Q04DX002 (ip), vehicle: saline) was 2 of 6.

`C[N+](C)(C)Cc1c[nH]c2ccccc12` was tested, and the survivor count [4] was 2 of 6, the survivor count [13] was 0 of 6 and the survivor count (dose: 200.0 mg/kg/injection, schedule: Q01DX009 (ip), vehicle: saline) was 1 of 6.

For `COc1cc(NC(C)CN(CC(C)C)C(C)C)c2ncccc2c1` (stereo unspecified), the survivor count [6] was 1 of 5.

In the case of `COc1cc(CO)c(CO)cc1OC`, the survivor count [7] is reported as 1 of 5, the survivor count [8] is reported as 0 of 5 and the survivor count [10] is reported as 0 of 6. For the same molecule, the survivor count [14] was 0 of 6 and the survivor count [5] was 0 of 6.

`O=C1NN=C(c2ccccc2)CS1` was tested, and the survivor count [5] was 4 of 6.

`O=C1CN(c2cccc(Cl)c2)C(=O)CN1/N=C/c1cccnc1` was tested, and the survivor count [3] was 6 of 6 and the survivor count (dose: 200.0 mg/kg/injection, schedule: Q01DX005 (ip), vehicle: saline with Tween-80) was 6 of 6.

With `Nc1nc(N)c(CCc2ccccc2)c(N)n1` the survivor count [15] was 0 of 5 and the survivor count [16] was 0 of 5.

For `C/C(=C/c1ccccc1)C(=O)C1C(c2ccccc2)CC(O)C(C)C1c1ccccc1` (stereo unspecified), the survivor count (dose: 400.0 mg/kg/injection, schedule: Q04DX003 (ip), vehicle: Klucel (hydroxypropylcellulose) (HPC)) was 6 of 6.

With `COc1cc(NC(C)CCCNC(C)C)c2ncccc2c1OC` (stereo unspecified) the survivor count [9] was 0 of 5, the survivor count (dose: 100.0 mg/kg/injection, schedule: Q01DX005 (ip), vehicle: saline) was 0 of 5 and the survivor count [6] was 0 of 5.

For `COc1cc(N)ccc1Nc1c2ccccc2nc2ccccc12`, the T/C (dose: 50.0 mg/kg/injection, schedule: Q04DX002 (ip), vehicle: distilled water + Tween-80) was 135 % of control, the survivor count (dose: 200.0 mg/kg/injection, schedule: Q04DX002 (ip), vehicle: distilled water + Tween-80) was 3 of 5 and the survivor count (dose: 400.0 mg/kg/injection, schedule: Q04DX002 (ip), vehicle: distilled water + Tween-80) was 0 of 5 and 1 of 6.

For `CN=C(N)NN=C1c2ccccc2-c2ccccc21`, the survivor count (dose: 100.0 mg/kg/injection, schedule: Q04DX002 (ip), vehicle: saline with Tween-80) was 3 of 6.

For `CC1(C)CC(=O)C(CSc2ccccc2)C(=O)C1`, the survivor count [1] was 0 of 6 and the survivor count [2] was 1 of 6.

With `CCCCCCCCCCNCCSSCc1ccc(OC)cc1` the survivor count (dose: 50.0 mg/kg/injection, schedule: Q01DX005 (ip), vehicle: Klucel (hydroxypropylcellulose) (HPC)) was 5 of 5, the survivor count [15] was 0 of 5 and the survivor count [16] was 0 of 5.

With `Cc1cc2c(cc1CC(=O)O)CC(=O)NC2` the survivor count (dose: 12.5 mg/kg/injection, schedule: Q01DX009 (ip), vehicle: distilled water + Tween-80) was 3 of 3.

`CNC(=O)OCc1nc(-c2ccccc2)sc1COC(=O)NC` was tested, and the survivor count (dose: 50.0 mg/kg/injection, schedule: Q01DX005 (ip), vehicle: distilled water + Tween-80) was 5 of 5, the survivor count (dose: 100.0 mg/kg/injection, schedule: Q01DX005 (ip), vehicle: distilled water + Tween-80) was 4 of 5 and the survivor count (dose: 200.0 mg/kg/injection, schedule: Q01DX005 (ip), vehicle: distilled water + Tween-80) was 2 of 5.

`CC(=O)Nc1c([N+](=O)[O-])cc2c3c(cccc13)CC2` was tested, and the survivor count (dose: 400.0 mg/kg/injection, schedule: Q01DX009 (ip), vehicle: saline with Tween-80) was 3 of 6.

In the case of `COc1ccc(OC(=O)Nc2ccc(Cl)c(C(F)(F)F)c2)c(Cl)c1`, the survivor count (dose: 50.0 mg/kg/injection, schedule: Q01DX009 (ip), vehicle: saline + alcohol) is reported as 6 of 6.

`CC(C)(C)N(OC(=O)c1ccc(Cl)cc1)c1ccccc1` was tested, and the survivor count [14] was 6 of 6.

`O=C1C(=C(Cl)Cl)C(=O)c2ccccc21` was tested, and the survivor count (dose: 25.0 mg/kg/injection, schedule: Q01DX005 (ip), vehicle: Klucel (hydroxypropylcellulose) (HPC)) was 5 of 6, the survivor count [15] was 1 of 6 and the survivor count [16] was 0 of 6.

For `Clc1cc2nc[nH]c2cc1Cl`, the survivor count [5] was 3 of 6.

For `COc1cc(OC)c2cc(-n3nnc4cc([N+](=O)[O-])ccc43)c(=O)oc2c1`, the survivor count [11] was 6 of 6 and the survivor count [12] was 6 of 6.

For `Cc1cnc(C=O)c2cccc([N+](=O)[O-])c12`, the survivor count (dose: 200.0 mg/kg/injection, schedule: Q01DX009 (ip), vehicle: Klucel (hydroxypropylcellulose) (HPC)) was 5 of 6.

With `CC(=O)OC1C(CO)OC2C1Oc1nc(=N)c(F)cn12` (stereo unspecified) the T/C (dose: 0.78 mg/kg/injection, schedule: Q01DX009 (ip), vehicle: saline with Tween-80) was 132 % of control, the survivor count (dose: 6.25 mg/kg/injection, schedule: Q01DX009 (ip), vehicle: saline with Tween-80) was 6 of 6 and the survivor count (dose: 12.5 mg/kg/injection, schedule: Q01DX009 (ip), vehicle: saline) was 6 of 6. For the same molecule, the T/C [17] was 142 % of control, the survivor count [17] was 6 of 6 and the survivor count [4] was 6 of 6. The survivor count [13] was 6 of 6.
